Results: US10662150B2, “Sulfonic acid salt composition and use thereof for color stabilization” (L. BRÜGGEMANN GMBH & CO. KG, priority 2016, dated 2020)

Assay: Color stabilization of superabsorbent polymers (Hunter b-value)
Details: for Increase in b-value (after 26 days) in %: 100 g SAP treated with 3 g of a 1% solution, stored at 60° C. and 90% relative humidity

| Molecule | b-value (day 0) (SAP powder treated with 3 g of a 1% solution per 100 g, Hunter b-value before storage) | Increase in b-value (after 26 days) in % |
| --- | --- | --- |
| O=C([O-])C(O)S(=O)(=O)[O-].[Mg+2] (stereo not drawn) [Example 2, Magnesium-Salt of 2-Hydroxy-2-Sulfonatoacetic Acid] | 3.01 | – |
| Mixed Magnesium-Zinc-Salt of 2-Hydroxy-2-Sulfonatoacetic Acid [Example 3] | – | +11.7% |
| 2-hydroxy-2-sulfonatoacetic acid disodium salt [reference compound] | – | +16.7% |
